Assay results as given in patent publication US7700122B1, “Topical compositions comprising an opioid analgesic and an NMDA antagonist” (Memorial Sloan-Kettering Cancer Center, priority 1998, dated 2010).

How the values were obtained:
CD-1 mice [1] = experiment: Interactions between topical and systemic or spinal morphine (tailflick); assay type: in vivo
CD-1 mice [2] = details: Kolesnikov et al., 1996; cited from earlier work
CD-1 mice [3] = experiment: Tailflick assay, topical opioid analgesia (tail immersion in DMSO solution); assay type: in vivo
CD-1 mice [4] = experiment: Tolerance to systemic and topical morphine and cross tolerance (tailflick); assay type: in vivo; details: tolerant/naive ED50, topical
[5] = mouse, in vivo

Compound	Topical Shift, spinal (CD-1 mice [1]; shift of spinal ED50 by topical morphine 15 mM)	Topical Shift, systemic (CD-1 mice [1]; shift of systemic ED50 by topical morphine 15 mM)	shift in local morphine dose-response curves in mice tolerant to systemic morphine (CD-1 mice [2])	Relative potency (CD-1 mice [3]; ratio of topical ED50 against morphine)	ED50 (95% CL) (CD-1 mice [3]; topical for 1 min, tailflick assay, CD-1 mice)	Ratio, Topical (CD-1 mice [4])	radioactivity in blood, brain or spinal cord [5]	radioactivity in proximal unexposed tail relative to immersed distal tail [5]
CN1CC[C@]23c4c5ccc(O)c4O[C@H]2[C@@H](O)C=C[C@H]3[C@H]1C5 [Morphine]	12	6.5	19 fold	1	8.3 mM (4-13)	9.4	–	–
[^125I]DAMGO [^125I-DAMGO]	–	–	–	–	–	–	no detectable levels of radioactivity	< 1%
